The target in the experiment is Recombinant human His-PPARγ-LBD fragment (ligand binding domain), not phosphorylated (human). The experiment is described as follows: AlphaScreen or HTRF; in vitro phosphorylation reaction first (LBD, CDK5/p25, with or without ATP, 30°C 30 min), 2 μM Chi, Ros or Pio added in or after the reaction, then the conventional AlphaScreen procedure; fold change with agonist over vehicle (DMSO); both purified. For orientation: Bead proximity is the source of the signal in Alpha formats.

Results are given in words; binding and its absence hold for the method and conditions named. A result given as binding can be weak or reduced; the word gives no strength.

B1: SRC3-3 (nuclear receptor coactivator 3) biotinylated peptide motif (peptide)
peptide: SPKKKENNALLRYLLDRDD
modifications: biotin on the N-terminus
Turning to B1, the binding entry is “binds”.

Values taken from paper PMC5625810, “Chiglitazar Preferentially Regulates Gene Expression via Configuration-Restricted Binding and Phosphorylation Inhibition of PPARγ” (PPAR Research, 2017).
